Taken from: PubChem BioAssay AID720505 (Drosophila RNAi Screening Center, 2013)
Purpose: 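Fly regulators or components of the CRAC channel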 (primary screen). Cells: Drosophila S2R+ cells. Knock-down reagent: long dsRNA against Drosophila genes. Conditions: thapsigargin (2 µM) in calcium-free buffer to empty internal stores, then 2 mM calcium added back. Read-out: 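Stores emptied by 2 µM thapsigargin without calcium, then 2 mM calcium re-added; fluo-4 fluorescence followed by FLIPR in 384-well plates, per-well averaged endpoint, raw; two screen passes, some wells retested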. Scale: calcium signal and retest calcium signal: higher = more calcium entry after store depletion. Rule for the call: 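Knock-downs counted as hits when calcium entry dropped relative to STIM1 positive and Rho1 negative controls present on each plate; roughly 1500 genes called, with reductions of differing size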. Meaning of the calls: active = called as lowering calcium entry; inactive = not called.
The screen tested about 20,000 reagents; shown is a random part of those that have a named target and a result. Of all reagents, about 2,100 (10%) are marked active. 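Raw plate signals without normalisation; calls rest on control-based scores that were not deposited; replicate 2 separates called from uncalled poorly.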 The record does not give: the amount of reagent, the time to read-out.

Target gene,DRSC id,"calcium signal, replicate 1","calcium signal, replicate 2","retest calcium signal, replicate 1","retest calcium signal, replicate 2",call
CG10898,DRSC14279,94.4,111,,,inactive
CG14294,DRSC14774,93.2,80.3,,,inactive
gammaSnap2 (gamma Soluble NSF attachment protein 2),DRSC15992,114,96.7,,,inactive
CG7300,DRSC03044,68.4,101,,,active
Skp2 (S-phase kinase-associated protein 2),DRSC12329,111,83,,,inactive
CG9948,DRSC11104,92.9,98.2,,,inactive
mtg (mind the gap),DRSC16256,112,177,,,inactive
CG5116,DRSC15720,92.7,129,,,inactive
CG12121,DRSC17816,79,97,,,inactive
DopEcR (Dopamine/Ecdysteroid receptor),DRSC08529,75.3,83.5,,,inactive
rad (retired record),DRSC18966,,,,,inactive
rad (retired record),DRSC19687,112,84.5,6552,84.3,inactive
rad (retired record),DRSC19816,104,85.3,,,inactive
rad (retired record),DRSC22865,85.5,84.9,,,inactive
CG16952,DRSC19759,106,121,,,inactive
sxe2 (sex-specific enzyme 2),DRSC15692,144,165,,,inactive
CG30339,DRSC05168,126,92.3,,,inactive
CG14053,DRSC17908,114,116,,,inactive
PIP82,DRSC18694,208,81.5,,,inactive
CG32647,DRSC19690,115,106,,,inactive
CG32647,DRSC19878,81,98.5,,,inactive
Nurf-38 (Nucleosome remodeling factor - 38kD),DRSC04629,123,227,,,inactive
Rim2 (Replication in mitochondria 2),DRSC00073,95.3,165,,,inactive
Rim2 (Replication in mitochondria 2),DRSC00520,116,273,,,inactive
Rim2 (Replication in mitochondria 2),DRSC22699,102,153,,,inactive
Cyp4p3 (Cytochrome P450 4p3),DRSC07374,128,120,,,inactive
GstE3 (Glutathione S transferase E3),DRSC06673,196,163,,,inactive
CG34460,DRSC06974,110,109,,,inactive
sc (scute),DRSC18830,78.3,103,,,inactive
CG14671,DRSC12257,143,222,,,inactive
InR (Insulin-like receptor),DRSC16717,123,123,,,inactive
Obp83cd (Odorant-binding protein 83cd),DRSC12267,82.9,126,,,inactive
l(2)03659 (lethal (2) 03659),DRSC07269,132,150,,,inactive
l(2)03659 (lethal (2) 03659),DRSC07638,127,159,,,inactive
CG5068,DRSC10476,66.7,131,,,active
Lipt1 (Lipoyltransferase 1),DRSC05600,45.4,106,,,active
CG7246,DRSC18422,168,178,,,inactive
CG14342,DRSC00372,193,101,,,inactive
Pura (Puratrophin-1-like),DRSC10862,98.2,78.1,,,inactive
Pura (Puratrophin-1-like),DRSC10864,82.5,81.2,,,inactive
Pura (Puratrophin-1-like),DRSC10865,98.7,82.1,,,inactive
Pura (Puratrophin-1-like),DRSC10866,98.2,86,,,inactive
CG7968,DRSC01903,129,84.3,,,inactive
CG31075,DRSC16016,188,163,,,inactive
galectin,DRSC00305,198,150,,,inactive
CG6839,DRSC10723,136,82.1,,,inactive
Chi (Chip),DRSC04602,159,83.9,,,inactive
Cdk5alpha (Cdk5 activator-like protein),DRSC03290,198,147,,,inactive
Cdk5alpha (Cdk5 activator-like protein),DRSC23301,155,159,,,inactive
CG10395,DRSC04840,134,162,,,inactive
CG16772,DRSC02516,103,109,,,inactive
CG18418,DRSC08535,79,84.5,,,inactive
CG31200,DRSC15285,137,166,,,inactive
beat-VI (beaten path VI),DRSC14474,158,165,,,inactive
beat-VI (beaten path VI),DRSC14727,172,129,,,inactive
Setd3 (SET domain containing 3),DRSC17840,222,95.7,,,inactive
Setd3 (SET domain containing 3),DRSC18269,266,139,,,inactive
CG42238,DRSC03180,105,132,,,inactive
CG6048,DRSC18398,192,137,,,inactive
CG44098,DRSC12214,65.2,116,113,119,active
CG44098,DRSC12240,90.1,92.2,,,inactive
CG44098,DRSC12327,84.7,128,,,inactive
mthl8 (methuselah-like 8),DRSC08211,71,160,,,active
mthl8 (methuselah-like 8),DRSC08311,79.3,101,,,inactive
hng1 (hinge1),DRSC04555,72.4,157,,,active
CG31050,DRSC13883,,,,,active
CG9459,DRSC16496,126,84.1,,,inactive
CG14851,DRSC14975,90.9,110,,,inactive
CG14851,DRSC21500,148,121,,,inactive
CG12420,DRSC14514,118,102,8155,134,inactive
fu (fused),DRSC20333,76.2,71.2,,,active
prel (preli-like),DRSC07271,158,161,,,inactive
Spag1 (Spag1 axonemal dynein assembly factor),DRSC15331,187,132,,,inactive
Spn47C (Serpin 47C),DRSC07030,128,109,,,inactive
PIG-Wa (Phosphatidylinositol glycan anchor biosynthesis class W a),DRSC00728,197,188,,,inactive
Tailor,DRSC12526,130,183,,,inactive
chinmo (Chronologically inappropriate morphogenesis),DRSC00292,167,263,,,inactive
chinmo (Chronologically inappropriate morphogenesis),DRSC00485,112,114,,,inactive
chinmo (Chronologically inappropriate morphogenesis),DRSC00509,147,128,,,inactive
chinmo (Chronologically inappropriate morphogenesis),DRSC22413,99.8,202,,,inactive
CG15728,DRSC19694,98.2,102,,,inactive
CG15728,DRSC22868,74,89.4,,,inactive
swm (second mitotic wave missing),DRSC02012,100,98,91.4,121,inactive
swm (second mitotic wave missing),DRSC21831,49.2,92.7,,,active
dsx-c73A (doublesex cognate 73A),DRSC09914,115,160,,,inactive
dsx-c73A (doublesex cognate 73A),DRSC10429,91.5,218,,,inactive
CG13658,DRSC14659,217,159,,,inactive
Vps20 (Vacuolar protein sorting 20),DRSC04448,116,150,,,inactive
CG14990,DRSC08449,98.6,115,,,inactive
wdn (wings down),DRSC17095,102,181,,,inactive
pum (pumilio),DRSC17037,78.9,183,7279,131,inactive
pum (pumilio),DRSC17038,87.4,173,,,inactive
pum (pumilio),DRSC22758,135,191,,,inactive
pum (pumilio),DRSC22794,78.6,86.6,,,inactive
CG15046,DRSC19622,84.5,119,,,inactive
CG2906,DRSC06841,109,130,,,inactive
IFT52 (Intraflagellar transport 52),DRSC03271,102,120,,,inactive
cact (cactus),DRSC03501,94.6,141,,,inactive
CR14798 (pseudo),DRSC17956,68.3,132,,,inactive
Tango9 (Transport and Golgi organization 9),DRSC14173,116,92,,,inactive
Mlp60A (Muscle LIM protein at 60A),DRSC04623,93.9,102,,,inactive
Mlp60A (Muscle LIM protein at 60A),DRSC22233,50.2,162,,,active
Mlp60A (Muscle LIM protein at 60A),DRSC22481,94.9,220,,,inactive
CG42340,DRSC17458,8704,146,,,inactive
CG42340,DRSC17841,129,110,,,inactive
CG42340,DRSC18305,139,91.4,,,inactive
CG42340,DRSC21619,121,126,,,inactive

Single entries from above.
hng1 (hinge1) [DRSC04555], calcium signal, replicate 1 → 72.4
Value for chinmo (Chronologically inappropriate morphogenesis) [DRSC00485] under “call”: inactive
Value for Obp83cd (Odorant-binding protein 83cd) [DRSC12267] under “calcium signal, replicate 1”: 82.9
l(2)03659 (lethal (2) 03659) [DRSC07638], calcium signal, replicate 1 = 127
For “call”, Setd3 (SET domain containing 3) [DRSC18269] shows inactive
CG6839 [DRSC10723], calcium signal, replicate 2 → 82.1
